In article PMC6451093:
Where a chain is given by its changes, count along the chain named. In names and notes the source's numbering stands. No constants are given. Whether binding was seen depends on the method and setting. In cells and extracts the contact can be indirect. Some binding calls cover weakened binding; strength is not graded here. For some of these results: Where a sequence is shown, tags or fusion partners need not be part of it.

Protein sequences, listed by entry. Tags and fused reporters are not part of them.
UniProt P11388: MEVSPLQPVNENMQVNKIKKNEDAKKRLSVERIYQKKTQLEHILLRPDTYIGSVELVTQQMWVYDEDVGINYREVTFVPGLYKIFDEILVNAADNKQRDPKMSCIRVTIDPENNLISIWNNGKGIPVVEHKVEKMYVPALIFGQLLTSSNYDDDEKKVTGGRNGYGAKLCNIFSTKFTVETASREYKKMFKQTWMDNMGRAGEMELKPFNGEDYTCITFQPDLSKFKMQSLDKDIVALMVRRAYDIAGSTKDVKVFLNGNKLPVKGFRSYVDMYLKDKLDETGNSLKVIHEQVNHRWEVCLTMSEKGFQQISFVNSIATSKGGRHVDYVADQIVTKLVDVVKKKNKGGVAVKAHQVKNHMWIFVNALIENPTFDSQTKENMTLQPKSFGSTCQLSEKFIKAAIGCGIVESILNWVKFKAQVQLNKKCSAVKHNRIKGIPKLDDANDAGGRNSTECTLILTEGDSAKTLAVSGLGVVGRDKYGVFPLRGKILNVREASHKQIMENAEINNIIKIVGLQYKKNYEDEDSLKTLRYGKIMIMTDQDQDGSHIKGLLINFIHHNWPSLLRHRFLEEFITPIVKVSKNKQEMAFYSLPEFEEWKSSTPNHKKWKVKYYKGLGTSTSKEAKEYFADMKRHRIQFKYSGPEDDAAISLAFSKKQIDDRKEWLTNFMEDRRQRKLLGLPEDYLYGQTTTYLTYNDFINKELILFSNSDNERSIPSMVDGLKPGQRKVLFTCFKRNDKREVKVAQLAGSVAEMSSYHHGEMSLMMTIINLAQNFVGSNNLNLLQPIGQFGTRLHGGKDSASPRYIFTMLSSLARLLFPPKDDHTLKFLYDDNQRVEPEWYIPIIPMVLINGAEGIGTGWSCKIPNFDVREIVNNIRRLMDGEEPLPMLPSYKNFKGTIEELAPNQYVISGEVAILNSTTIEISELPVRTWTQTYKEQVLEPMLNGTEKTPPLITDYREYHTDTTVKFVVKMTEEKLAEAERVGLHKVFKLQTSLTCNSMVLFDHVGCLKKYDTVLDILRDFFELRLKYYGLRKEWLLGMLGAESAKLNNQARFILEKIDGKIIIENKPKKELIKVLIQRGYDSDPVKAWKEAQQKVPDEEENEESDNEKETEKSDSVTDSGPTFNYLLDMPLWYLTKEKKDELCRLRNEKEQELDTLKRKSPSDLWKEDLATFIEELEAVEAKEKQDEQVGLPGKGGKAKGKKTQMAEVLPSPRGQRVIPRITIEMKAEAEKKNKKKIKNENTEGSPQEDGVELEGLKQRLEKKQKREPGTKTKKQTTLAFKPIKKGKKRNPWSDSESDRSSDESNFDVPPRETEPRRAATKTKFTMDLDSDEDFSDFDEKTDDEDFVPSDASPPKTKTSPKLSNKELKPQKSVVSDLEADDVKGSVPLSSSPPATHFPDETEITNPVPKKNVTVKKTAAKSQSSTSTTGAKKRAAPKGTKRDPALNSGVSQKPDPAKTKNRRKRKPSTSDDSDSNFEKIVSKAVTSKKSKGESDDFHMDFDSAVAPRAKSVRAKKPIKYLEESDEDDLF

T1: SMC6 (human (endogenous in RPE1)) (UniProt Q96SB8)
T1 sequence: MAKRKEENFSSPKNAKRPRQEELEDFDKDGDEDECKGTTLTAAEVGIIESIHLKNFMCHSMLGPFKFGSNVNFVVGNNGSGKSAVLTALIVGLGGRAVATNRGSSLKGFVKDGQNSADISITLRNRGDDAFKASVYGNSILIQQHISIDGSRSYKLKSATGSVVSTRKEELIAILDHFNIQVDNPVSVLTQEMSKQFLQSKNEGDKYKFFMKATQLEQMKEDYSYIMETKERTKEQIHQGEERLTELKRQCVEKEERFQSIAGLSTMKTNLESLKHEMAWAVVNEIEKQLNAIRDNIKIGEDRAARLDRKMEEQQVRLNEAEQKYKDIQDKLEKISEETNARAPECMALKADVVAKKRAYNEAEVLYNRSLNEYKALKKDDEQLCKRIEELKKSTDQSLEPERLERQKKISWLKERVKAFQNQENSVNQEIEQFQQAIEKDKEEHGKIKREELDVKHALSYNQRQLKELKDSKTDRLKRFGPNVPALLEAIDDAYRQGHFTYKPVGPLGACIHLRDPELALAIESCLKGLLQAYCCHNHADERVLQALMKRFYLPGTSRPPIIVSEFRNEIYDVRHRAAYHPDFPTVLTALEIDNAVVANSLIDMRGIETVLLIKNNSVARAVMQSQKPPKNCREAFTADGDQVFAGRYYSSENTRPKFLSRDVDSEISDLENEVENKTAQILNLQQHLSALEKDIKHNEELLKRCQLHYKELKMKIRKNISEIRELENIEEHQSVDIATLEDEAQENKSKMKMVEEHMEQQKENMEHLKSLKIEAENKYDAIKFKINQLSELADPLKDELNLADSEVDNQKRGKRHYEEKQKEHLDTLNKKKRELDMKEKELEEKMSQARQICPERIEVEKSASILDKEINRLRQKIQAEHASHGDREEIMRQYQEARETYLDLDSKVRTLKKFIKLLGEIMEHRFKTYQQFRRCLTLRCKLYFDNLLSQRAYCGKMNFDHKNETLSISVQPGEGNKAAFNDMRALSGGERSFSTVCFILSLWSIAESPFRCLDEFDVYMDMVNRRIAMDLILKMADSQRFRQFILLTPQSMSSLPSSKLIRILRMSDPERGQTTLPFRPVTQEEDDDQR

B1: SMC6 (protein, UniProt Q96SB8 1-1091)
chain: T1 sequence
B2: NSE2wt-GFP (enzyme, UniProt Q96MF7 1-247)
chain: MPGRSSSNSGSTGFISFSGVESALSSLKNFQACINSGMDTASSVALDLVESQTEVSSEYSMDKAMVEFATLDRQLNHYVKAVQSTINHVKEERPEKIPDLKLLVEKKFLALQSKNSDADFQNNEKFVQFKQQLKELKKQCGLQADREADGTEGVDEDIIVTQSQTNFTCPITKEEMKKPVKNKVCGHTYEEDAIVRMIESRQKRKKKAYCPQIGCSHTDIRKSDLIQDEALRRAIENHNKKRHRHSE
B3: NSE2-H187A-GFP (enzyme, UniProt Q96MF7 1-247)
chain: B2 chain with H187A

Tests used:
[1] = molecular target: Topo2a (human (endogenous in RPE1)) (UniProt P11388); experiment: proximity ligation; RPE1 cells on chambered slides, fixed, kit (Sigma); with or without 3 μM ICRF193 for 18 h; non-targeting control or siSMC6
[2] = molecular target: Topo2a (human (endogenous in RPE1)) (UniProt P11388); experiment: co-IP; cells lysed by sonication in RIPA buffer; Topo2a-antibodies (Millipore) or SMC6-antibodies (Abcam) on Dynabeads Protein G, 2 h at 4°C; immunoblot; with or without ICRF193
[3] = molecular target: T1, SMC6 (human (endogenous in RPE1)); experiment: as above

Binder | binding [1] | binding [2] | binding [3]
B1 | binds | binds | 
B2 | binds |  | 
B3 |  |  | binds
